Experimental data published in US20240000838A1 (SIMCERE INNOVATION, published 2024).

Protein sequences, listed by entry. Tags and fused reporters are not part of them. Residues count along the entry.
UniProt P20138, 18-259 limits assumed: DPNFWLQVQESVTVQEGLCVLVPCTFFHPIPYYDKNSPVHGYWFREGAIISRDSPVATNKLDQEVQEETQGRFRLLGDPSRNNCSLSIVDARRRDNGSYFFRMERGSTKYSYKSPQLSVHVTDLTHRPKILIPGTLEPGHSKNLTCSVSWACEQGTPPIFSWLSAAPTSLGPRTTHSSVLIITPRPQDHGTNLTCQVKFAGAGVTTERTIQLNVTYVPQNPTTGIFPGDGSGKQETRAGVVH

What was measured:
[1] = molecular target: T1, CD5 on human T cells (autologous and allogeneic Pan-T cells) and on the T-ALL cell line CCRF-CEM (human, UniProt P06127 25-495); assay: cell-based or functional assay
T1 sequence (looked up): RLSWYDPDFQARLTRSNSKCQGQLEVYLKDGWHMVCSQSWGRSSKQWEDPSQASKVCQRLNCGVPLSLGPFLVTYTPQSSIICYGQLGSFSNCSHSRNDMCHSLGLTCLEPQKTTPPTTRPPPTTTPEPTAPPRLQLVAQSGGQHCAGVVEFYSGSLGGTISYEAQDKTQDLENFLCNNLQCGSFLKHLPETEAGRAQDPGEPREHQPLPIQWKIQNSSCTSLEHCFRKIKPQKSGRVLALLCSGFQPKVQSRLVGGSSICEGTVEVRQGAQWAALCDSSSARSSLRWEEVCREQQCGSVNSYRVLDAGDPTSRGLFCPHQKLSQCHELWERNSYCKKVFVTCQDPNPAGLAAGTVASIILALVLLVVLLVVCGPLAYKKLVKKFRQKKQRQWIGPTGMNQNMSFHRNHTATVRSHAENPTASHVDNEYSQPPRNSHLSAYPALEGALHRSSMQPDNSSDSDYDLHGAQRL

[2] = molecular target: T2, Human CD5 Protein, HisTag (AcroBiosystems, Cat #CD5-H52H5) (human, UniProt P06127 25-372); assay: flow cytometry; CAR-T cells stained with soluble human CD5-His and His-APC antibody
T2 construct: Bought staining reagent, detected with His-APC antibody; also called CD5 antigen; APC labeled CD5 antigen; not shown: His tag
T2 sequence (looked up): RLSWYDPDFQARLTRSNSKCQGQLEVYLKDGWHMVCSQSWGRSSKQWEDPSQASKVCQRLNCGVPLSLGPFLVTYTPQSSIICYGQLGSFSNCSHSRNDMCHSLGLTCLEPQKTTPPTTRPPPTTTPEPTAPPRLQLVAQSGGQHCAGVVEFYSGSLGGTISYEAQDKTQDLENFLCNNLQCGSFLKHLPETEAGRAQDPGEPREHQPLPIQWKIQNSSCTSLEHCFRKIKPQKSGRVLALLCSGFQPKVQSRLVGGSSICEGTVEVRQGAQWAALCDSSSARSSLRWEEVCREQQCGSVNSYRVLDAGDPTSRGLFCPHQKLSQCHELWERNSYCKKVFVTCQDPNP
Protocol: (§1) CD3 and CD5 are stained with a CD3-FITC antibody (BD Biosciences, #555339) and a CD5-APC antibody (BD Biosciences, #555355) for 30 minutes at R.T. in the dark. CAR5 surface expression is detected by staining with Human CD5 Protein, HisTag (AcroBiosystems, Cat #CD5-H52H5) for 1 hour at R.T., washed and then incubated with His-APC antibody (R&D Systems, IC050A) for 30 minutes at R.T. in the dark. CAR33 expression is stained with CD33 human protein-PE (Sino Biological, 12238-HCCH_P) for 1 hour at R.T. All the staining is performed at 1:10 dilutions. DAPI (Thermo Scientific, Cat #BV-421, 1:5000) is used to stain dead cells before running by the Attune NxT Flow Cytometer (Thermo Fisher Scientific). Data is further analyzed by either using Attune NxT flow software or FlowJo software.

[3] = molecular target: T3, CD33 human protein-PE (Sino Biological, 12238-HCCH_P) (human, UniProt P20138 18-259, PE label); assay: flow cytometry; CAR-T cells stained with CD33 human protein-PE
T3 construct: Bought staining reagent; also called CD33 antigen
Protocol: as §1

Row | Binder | elimination of CCRF-CEM cells after 18 hours (luciferase-based killing assay) [1] | % of T cells stained with CD5 antigen (CAR5 expression) [2] | binding result [3]
1 | CD5 CAR CAR5-5, construct S009 (other, Chimeric antigen receptor on T cells) DIQMTQSPSSLSASVGDRVTITCRASQDINSYLSWFQQKPGKAPKTLIYRANRLESGVPSRFSGSGSGTDYTLTISSLQYEDFGIYYCQQYDESPWTFGGGTKLEIKGGGGSGGGGSGGGGSEIQLVQSGGGLVKPGGSVRISCAASGYTFTNYGMNWVRQAPGKGLEWMGWINTHTGEPTYADSFKGRFTFSLDDSKNTAYLQINSLRAEDTAVYFCTRRGYDWYFDVWGQGTTVTVSSASTTTPAPRPPTPAPTIASQPLSLRPEACRPAAGGAVHTRGLDFACDIYIWAPLAGTCGVLLLSLVITLYCKRGRKKLLYIFKQPFMRPVQTTQEEDGCSCRFPEEEEGGCELRVKFSRSADAPAYKQGQNQLYNELNLGRREEYDVLDKRRGRDPEMGGKPRRKNPQEGLYNELQKDKMAEAYSEIGMKGERRRGKGHDGLYQGLSTATKDTYDALHMQALPPR | ~100% | > 80% | 
2 | CD5 CAR CAR5-1, construct S005 (other, Chimeric antigen receptor (scFv ectodomain) on T cells) DIKMTQSPSSMYASLGERVTITCKASQDINSYLSWFHHKPGKSPKTLIYRANRLVDGVPSRFSGSGSGQDYSLTISSLDYEDMGIYYCQQYDESPWTFGGGTKLEMKGGGGSGGGGSGGGGSNIQLVQSGPELKKPGETVKISCKASGYTFTNYGMNWVKQAPGKGLRWMGWINTHTGEPTYADDFKGRFAFSLETSASTAYLQINNLKNEDTATYFCTRRGYDWYFDVWGAGTTVTVSSASTTTPAPRPPTPAPTIASQPLSLRPEACRPAAGGAVHTRGLDFACDIYIWAPLAGTCGVLLLSLVITLYCKRGRKKLLYIFKQPFMRPVQTTQEEDGCSCRFPEEEEGGCELRVKFSRSADAPAYKQGQNQLYNELNLGRREEYDVLDKRRGRDPEMGGKPRRKNPQEGLYNELQKDKMAEAYSEIGMKGERRRGKGHDGLYQGLSTATKDTYDALHMQALPPR | ~100% | > 80% | 
3 | CD33 CAR CAR33-3, construct S013 (other, Chimeric antigen receptor on T cells) EIVLTQSPGSLAVSPGERVTMSCKSSQSVFFSSSQKNYLAWYQQIPGQSPRLLIYWASTRESGVPDRFTGSGSGTDFTLTISSVQPEDLAIYYCHQYLSSRTFGQGTKLEIKRGGGGSGGGGSGGGGSQVQLQQPGAEVVKPGASVKMSCKASGYTFTSYYIHWIKQTPGQGLEWVGVIYPGNDDISYNQKFQGKATLTADKSSTTAYMQLSSLTSEDSAVYYCAREVRLRYFDVWGQGTTVTVSSASTTTPAPRPPTPAPTIASQPLSLRPEACRPAAGGAVHTRGLDFACDIYIWAPLAGTCGVLLLSLVITLYCKRGRKKLLYIFKQPFMRPVQTTQEEDGCSCRFPEEEEGGCELRVKFSRSADAPAYKQGQNQLYNELNLGRREEYDVLDKRRGRDPEMGGKPRRKNPQEGLYNELQKDKMAEAYSEIGMKGERRRGKGHDGLYQGLSTATKDTYDALHMQALPPR |  |  | binds
4 | CD33 CAR CAR33-5, construct S015 (other, Chimeric antigen receptor on T cells) NIMLTQSPSSLAVSAGEKVTMSCKSSQSVFFSSSQKNYLAWYQQIPGQSPKLLIYWASTRESGVPDRFTGSGSGTDFTLTISSVQSEDLAIYYCHQYLSSRTFGGGTKLEIKRGGGGSGGGGSGGGGSQVQLQQPGAEVVKPGASVKMSCKASGYTFTSYYIHWIKQTPGQGLEWVGVIYPGNDDISYNQKFKGKATLTADKSSTTAYMQLSSLTSEDSAVYYCAREVRLRYFDVWGAGTTVTVSSASTTTPAPRPPTPAPTIASQPLSLRPEACRPAAGGAVHTRGLDFACDIYIWAPLAGTCGVLLLSLVITLYCKRGRKKLLYIFKQPFMRPVQTTQEEDGCSCRFPEEEEGGCELRVKFSRSADAPAYKQGQNQLYNELNLGRREEYDVLDKRRGRDPEMGGKPRRKNPQEGLYNELQKDKMAEAYSEIGMKGERRRGKGHDGLYQGLSTATKDTYDALHMQALPPR |  |  | binds
